From publication PMC3791872, “Ciprofloxacin is an inhibitor of the Mcm2-7 replicative helicase” (Bioscience Reports, 2013)

Assays:
RPE-hTERT cells = test: Human cell viability, MTS method; assay type: cell-based; conditions: RPE-TERT vs ∆erg6 yeast
Protocol: Ciproﬂoxacin is an inhibitor of the Mcm2-7 […]
The viability of human cells was assayed using the MTS method
[1]. Brieﬂy, 1 ×10^5 cells of the human non-tumour cell line RPE-hTERT were plated into each well of a 96-well plate and grown in DMEM: F12 containing 10 % (v/v) FBS in 5 % (v/v) CO2 at 37 ◦ C. The next day, the indicated compounds were titrated into media such that the ﬁnal concentration contained 1 % (v/v)
DMSO. As a negative control, media were also prepared that contained 1 % DMSO but lacked compound. After 48 h, the media was removed and replaced with DMEM lacking phenol red but containing Cell Titer 96 Aqueous One Solution Cell Proliferation
Assay (Promega). After 1 h, the A490 nm was measured using a BioRad iMark Microplate Reader (Hercules). Final data reﬂect the average and standard deviation (S.D.) of three replicates at each compound concentration. […]

Mcm2-7 = tested on: T1, Mcm2-7; test: Mcm2-7 helicase (DNA unwinding) assay; assay type: biochemical, Saccharomyces cerevisiae
T1 construct: made in house; host or cells: baculovirus-infected insect cells

Compound: O=C(O)c1cn(C2CC2)c2cc(N3CCNCC3)c(F)cc2c1=O [Ciprofloxacin, ciprofloxacin]
- fold human cells more sensitive than yeast (RPE-hTERT cells): ~ 2.5 fold
- fold lower concentration inhibiting Mcm2-7 than Mcm467 (Mcm2-7): approximately 3 fold
- fold lower concentration inhibiting Mcm2-7 than TAg (Mcm2-7): approximately 6 fold
